# Values quoted from earlier work, collected in patent publication US6482411B1, “Methods of reducing bone loss with CD40 ligand” (Board of Regents, The University of Texas System, priority 1999, dated 2002).
# Details: 5 mg alendronate; cited from earlier work
smiles,measurement,value
NCCCC(O)(P(=O)(O)O)P(=O)(O)O [alendronate],mean increase at the hip (bone mineral density),1.9%
same,mean increase at the spine (bone mineral density),3.5%
